{"source": "patent US20030022847A1", "about": "“Method for inhibiting apoptosis under ischemic condition” (priority 2000, published 2003)", "tested_on": "HepG2 cells", "test": "Analysis of DNA (gel electrophoresis, laddering) from cells under hypoxic and hypoglycemic condition", "conditions": "1% (v/v) oxygen, 1 g/L glucose", "note": "At least one structure is not confirmed: it was looked up by name or label, or the drawing left a doubt. Some entries repeat one wording, which the source may state once for all of them."}
{"compound": "C[C@H]1c2cccc(O)c2C(=O)C2=C(O)[C@]3(O)C(=O)C(C(N)=O)=C(O)[C@@H](N(C)C)[C@@H]3[C@@H](O)[C@@H]21", "note": "[doxycycline]", "values": [{"measurement": "DNA laddering (apoptosis)", "setting": "0.1 μg/ml, 2 days (test group F, FIG. 7)", "value": "almost no laddering"}]}
{"compound": "CC1COc2c(N3CCN(C)CC3)c(F)cc3c(=O)c(C(=O)O)cn1c23", "note": "(centres unmarked) [ofloxacin]", "values": [{"measurement": "DNA laddering (apoptosis)", "setting": "10 μg/ml, 2 days (test group E, FIG. 7)", "value": "almost no laddering"}]}
